Results from article PMC9334288.
No constants are given. Whether binding was seen depends on the method and setting. In cells and extracts the contact can be indirect. For part of these data: A result given as binding can be weak or reduced; the word gives no strength.

Chains of the proteins cited; added tags and fusions are not shown. Lines headed by an entry give the natural chain unless they say otherwise; changes in a name come on top.
UniProt P49758: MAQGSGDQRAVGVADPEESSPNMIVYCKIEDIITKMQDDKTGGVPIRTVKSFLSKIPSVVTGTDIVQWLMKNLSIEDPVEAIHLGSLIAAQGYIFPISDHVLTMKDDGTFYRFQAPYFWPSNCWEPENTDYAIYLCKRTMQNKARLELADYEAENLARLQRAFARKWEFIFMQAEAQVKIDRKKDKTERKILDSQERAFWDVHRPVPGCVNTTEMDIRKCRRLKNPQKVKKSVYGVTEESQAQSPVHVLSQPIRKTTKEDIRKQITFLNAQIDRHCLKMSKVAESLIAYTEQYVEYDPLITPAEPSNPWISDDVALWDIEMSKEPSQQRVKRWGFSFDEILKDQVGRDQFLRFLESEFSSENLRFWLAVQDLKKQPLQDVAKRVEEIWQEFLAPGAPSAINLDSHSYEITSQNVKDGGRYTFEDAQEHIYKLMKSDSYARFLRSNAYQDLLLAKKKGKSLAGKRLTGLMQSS
UniProt Q13485: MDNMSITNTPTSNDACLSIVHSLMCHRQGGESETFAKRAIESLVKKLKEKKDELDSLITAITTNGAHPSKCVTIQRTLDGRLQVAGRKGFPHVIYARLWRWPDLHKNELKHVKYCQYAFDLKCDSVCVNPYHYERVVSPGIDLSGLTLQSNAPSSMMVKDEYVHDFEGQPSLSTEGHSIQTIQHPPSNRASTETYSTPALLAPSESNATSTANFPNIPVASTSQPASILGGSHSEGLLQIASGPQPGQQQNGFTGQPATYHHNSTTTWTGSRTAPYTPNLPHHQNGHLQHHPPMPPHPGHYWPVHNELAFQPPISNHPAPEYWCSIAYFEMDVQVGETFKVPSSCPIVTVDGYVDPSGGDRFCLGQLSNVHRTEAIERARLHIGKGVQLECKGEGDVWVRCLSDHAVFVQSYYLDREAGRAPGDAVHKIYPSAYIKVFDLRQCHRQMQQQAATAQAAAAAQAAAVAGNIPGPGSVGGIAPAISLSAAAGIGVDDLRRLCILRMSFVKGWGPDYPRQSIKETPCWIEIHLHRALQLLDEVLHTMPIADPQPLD

Columns and labels:
Test in all cases: co-IP; 293T cells co-transfected with Flag-tagged SMAD4 and various HA-tagged RGS6 mutants; IP of lysates with anti-HA antibody
[1] = target: HA-tagged RGS6 mutant missing the DEP domain (human) (UniProt P49758)
[2] = target: HA-tagged RGS6 mutant lacking the RGS domain (human) (UniProt P49758)
[3] = target: HA-tagged RGS6(ΔGGL), mutant RGS6 that lacks the GGL domain (human) (UniProt P49758)

Flag-tagged SMAD4 (from UniProt Q13485 1-552)
binding [1]: binds
binding [2]: binds
binding [3]: no binding
